Test results as given in the supplement of paper PMC7877785.
± gives the uncertainty stated by the source. Many entries were measured with a wide error.

Experiment: self-splicing fitness, log relative to wild type (ln ratio); higher = more splicing; Tetrahymena group I intron in knt gene, E. coli kanamycin selection, DiMSum; sequences stand for … in CUCUCU…GGAGGGAAAAGUUAUCAGGCAUGCACCUGGUAGCUAGUCUUUAAACCAAUAGAUUGCAUCGGUUUAAAAGGCAAGACCGUCAAAUUGCGGGAAAGGGGUCAACAGCCGUUCAGUACCAAGUCUCAGGGGAAACUUUGAGAUGGCCUUGCAAAGGGUAUGGUAAUAAGCUGACGGACAUGGUCCUAACCACGCAGCCAAGUCCUAAGUCAACAGAUCUUCUGUUGAUAUGGAUGCAGUUCACAGACUAAAUGUCGGUCGGGGAAGAUGUAUUCUUCUCAUAAGAUAUAGUCGGACCUCUCCUUAAUGGGAGCUAGCGGAUGAAGUGAUGCAACACUGGAGCCGCUGGGAACUAAUUUGUAUGCGAAAGUAUAUUGAUUAGUUUUGGAGUACUCGUGGUCG
Summary of the method: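 A randomised library covering all eight P1ex-region intron nucleotides was built with the intron in the knt kanamycin-resistance gene on pET-22b(+) and held in E. coli BL21(DE3). Cells were grown overnight at 37°C or 30°C on LB agar, with or without 25 μg/mL kanamycin, plus 100 μg/mL carbenicillin, 50 μM IPTG and 0.2% rhamnose, and pooled colonies were amplicon-sequenced on an Illumina HiSeq 2500. DiMSum fitness is the error-weighted combination of wild-type-normalised replicate fold changes, kanamycin versus none.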

Row | Sequence | self-splicing fitness (ln) (30 °C) | self-splicing fitness (ln) (37 °C)
1 | GAGCAGCAAUAUUACGCUAC | -3.69 ± 0.6 | 
2 | CCCGAGCAAUAUUACGCACG | -4.17 ± 1.1 | 
3 | CGUCAGCAAUAUUACGCGUC |  | -2.91 ± 0.62
4 | UUUUAGCAAUAUUACGUUUC | -3.61 ± 0.53 | -1.98 ± 1.1
5 | UAAGAGCAAUAUUACGCGGG | -3.49 ± 0.37 | -3.91 ± 0.36
6 | UAAUAGCAAUAUUACGAUGA | -2.56 ± 0.19 | -1.48 ± 0.16
7 | CUGAAGCAAUAUUACGCCAC |  | -2.17 ± 0.55
8 | UUCCAGCAAUAUUACGUGAC | -2.56 ± 0.2 | -1.89 ± 0.21
9 | AUUUAGCAAUAUUACGUAUC | -3.57 ± 0.74 | 
10 | UUGGAGCAAUAUUACGAGCU |  | 0.000402 ± 1.2
11 | CUGAAGCAAUAUUACGUCAA | -1.2 ± 0.065 | -0.435 ± 0.084
12 | UGUGAGCAAUAUUACGAUGC | -3.82 ± 0.77 | 
13 | CGAGAGCAAUAUUACGAGCC | -3.16 ± 0.74 | -2.05 ± 1.1
14 | UUUCAGCAAUAUUACGCUUA | -0.378 ± 0.086 | 0.0227 ± 0.12
15 | UCUCAGCAAUAUUACGACUG | -2.79 ± 0.17 | -3.11 ± 0.28
16 | UUUGAGCAAUAUUACGAUUC | -3.07 ± 1.1 | -2.04 ± 0.85
17 | CUACAGCAAUAUUACGUGCU | -4.97 ± 0.58 | 
18 | GGGAAGCAAUAUUACGCAGC | -1.29 ± 0.14 | -1.12 ± 0.19
19 | AGGCAGCAAUAUUACGAGCC | -2 ± 0.14 | -1.4 ± 0.21
20 | CUUAAGCAAUAUUACGCGAC | -1.83 ± 0.16 | -0.508 ± 0.23

Row | Sequence | self-splicing fitness (ln) (30 °C) | self-splicing fitness (ln) (37 °C)
21 | UUUCAGCAAUAUUACGAAAU | -4.6 ± 0.52 | 
22 | CGAGAGCAAUAUUACGUCCC | -2.97 ± 0.75 | -3.28 ± 0.73
23 | UAAUAGCAAUAUUACGCCCG | -0.946 ± 0.6 | 
24 | AGAGAGCAAUAUUACGUGAC | -2.11 ± 0.69 | 
25 | UAGAAGCAAUAUUACGAGGC | -3.06 ± 0.61 | 
26 | UCUUAGCAAUAUUACGCGGU | -3.5 ± 0.2 | -2.76 ± 0.26
27 | UUUGAGCAAUAUUACGGUGU | -4.23 ± 0.52 | 
28 | ACCGAGCAAUAUUACGCGAC | -3.52 ± 0.6 | 
29 | UCGUAGCAAUAUUACGCCGC |  | -2.07 ± 1.1
30 | CAUAAGCAAUAUUACGAUAC | -4.25 ± 0.52 | 
31 | GUUUAGCAAUAUUACGGGAC | -2.8 ± 0.61 | 
32 | AGGGAGCAAUAUUACGCCAA | -3.47 ± 0.62 | 
33 | UCGGAGCAAUAUUACGAGAU | -3.4 ± 1.1 | 
34 | UCCUAGCAAUAUUACGGCUA | -3.92 ± 0.52 | 
35 | CCUUAGCAAUAUUACGGGAC |  | -3.52 ± 0.52
36 | UAUCAGCAAUAUUACGUUGA | -2.15 ± 0.18 | -1.95 ± 0.18
37 | GGGGAGCAAUAUUACGGUGA |  | -2.61 ± 0.54
38 | CGACAGCAAUAUUACGAGGA | -3.91 ± 0.2 | -2.53 ± 0.18
39 | UGUGAGCAAUAUUACGCCUC |  | -0.735 ± 0.61
40 | AGCCAGCAAUAUUACGUUUC |  | -3.13 ± 0.52

Some of the entries above in another layout:

| Row | Sequence | self-splicing fitness (ln) (30 °C) | self-splicing fitness (ln) (37 °C) |
| --- | --- | --- | --- |
| 28 | ACCGAGCAAUAUUACGCGAC | -3.52 ± 0.6 |  |
| 29 | UCGUAGCAAUAUUACGCCGC |  | -2.07 ± 1.1 |
| 30 | CAUAAGCAAUAUUACGAUAC | -4.25 ± 0.52 |  |
| 31 | GUUUAGCAAUAUUACGGGAC | -2.8 ± 0.61 |  |

Next part

Row | Sequence | self-splicing fitness (ln) (30 °C) | self-splicing fitness (ln) (37 °C)
41 | GCGCAGCAAUAUUACGGAGU | -2 ± 0.11 | -0.744 ± 0.13
42 | AUAGAGCAAUAUUACGAAAU | -0.572 ± 0.1 | 0.0653 ± 0.13
43 | GUCCAGCAAUAUUACGAACC | -1.97 ± 0.093 | -0.224 ± 0.11
44 | CUCAAGCAAUAUUACGGCUA | -2.87 ± 0.62 | 
45 | UAGAAGCAAUAUUACGAAGG | -2.9 ± 0.17 | -1.82 ± 0.39
46 | AGUGAGCAAUAUUACGCUCG | -2.29 ± 0.58 | 
47 | AAUGAGCAAUAUUACGGACC | -3.42 ± 0.74 | 
48 | CUCUAGCAAUAUUACGCUGC | -3.58 ± 0.44 | -2.98 ± 0.53
49 | UUGGAGCAAUAUUACGUGCU | -4.16 ± 0.51 | 
50 | GGGGAGCAAUAUUACGUGGG |  | -3.05 ± 0.74
51 | GCCCAGCAAUAUUACGUGGA | -0.734 ± 0.063 | 0.199 ± 0.076
52 | UUGUAGCAAUAUUACGUCGC |  | -2.49 ± 0.76
53 | ACGUAGCAAUAUUACGAGAC |  | -2.18 ± 1.1
54 | CUCGAGCAAUAUUACGAGCC | -3.66 ± 0.52 | 
55 | CCCAAGCAAUAUUACGCACC | -3.5 ± 0.73 | 
56 | UAGCAGCAAUAUUACGAACC | -2.61 ± 0.66 | -0.977 ± 0.66
57 | GCUCAGCAAUAUUACGAGGG | -2.38 ± 0.16 | -2.57 ± 0.25
58 | AGAUAGCAAUAUUACGCUGC | -3.75 ± 1 | 
59 | GUUUAGCAAUAUUACGCUAU | -2.2 ± 0.51 | 
